Measured values as given in paper PMC9045647.
These are yes or no findings as the source states them, for the method shown. Binding seen in cells or lysates may run through a third protein. Some binding calls cover weakened binding; strength is not graded here. Where a sequence is shown, tags or fusion partners need not be part of it.

By UniProt entry, the sequences of proteins in these tests, tags left out.
UniProt P9WQ69: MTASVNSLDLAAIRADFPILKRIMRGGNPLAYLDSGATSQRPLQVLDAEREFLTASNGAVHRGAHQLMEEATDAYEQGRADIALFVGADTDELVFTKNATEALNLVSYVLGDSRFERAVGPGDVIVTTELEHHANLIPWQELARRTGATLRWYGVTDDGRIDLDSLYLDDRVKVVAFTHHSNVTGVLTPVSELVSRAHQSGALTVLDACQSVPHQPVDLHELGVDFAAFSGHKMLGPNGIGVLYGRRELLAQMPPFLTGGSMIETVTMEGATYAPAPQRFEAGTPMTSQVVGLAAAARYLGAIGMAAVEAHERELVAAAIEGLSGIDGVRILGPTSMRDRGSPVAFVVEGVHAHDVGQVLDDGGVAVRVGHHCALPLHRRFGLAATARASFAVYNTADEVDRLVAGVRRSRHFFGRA
UniProt O53166: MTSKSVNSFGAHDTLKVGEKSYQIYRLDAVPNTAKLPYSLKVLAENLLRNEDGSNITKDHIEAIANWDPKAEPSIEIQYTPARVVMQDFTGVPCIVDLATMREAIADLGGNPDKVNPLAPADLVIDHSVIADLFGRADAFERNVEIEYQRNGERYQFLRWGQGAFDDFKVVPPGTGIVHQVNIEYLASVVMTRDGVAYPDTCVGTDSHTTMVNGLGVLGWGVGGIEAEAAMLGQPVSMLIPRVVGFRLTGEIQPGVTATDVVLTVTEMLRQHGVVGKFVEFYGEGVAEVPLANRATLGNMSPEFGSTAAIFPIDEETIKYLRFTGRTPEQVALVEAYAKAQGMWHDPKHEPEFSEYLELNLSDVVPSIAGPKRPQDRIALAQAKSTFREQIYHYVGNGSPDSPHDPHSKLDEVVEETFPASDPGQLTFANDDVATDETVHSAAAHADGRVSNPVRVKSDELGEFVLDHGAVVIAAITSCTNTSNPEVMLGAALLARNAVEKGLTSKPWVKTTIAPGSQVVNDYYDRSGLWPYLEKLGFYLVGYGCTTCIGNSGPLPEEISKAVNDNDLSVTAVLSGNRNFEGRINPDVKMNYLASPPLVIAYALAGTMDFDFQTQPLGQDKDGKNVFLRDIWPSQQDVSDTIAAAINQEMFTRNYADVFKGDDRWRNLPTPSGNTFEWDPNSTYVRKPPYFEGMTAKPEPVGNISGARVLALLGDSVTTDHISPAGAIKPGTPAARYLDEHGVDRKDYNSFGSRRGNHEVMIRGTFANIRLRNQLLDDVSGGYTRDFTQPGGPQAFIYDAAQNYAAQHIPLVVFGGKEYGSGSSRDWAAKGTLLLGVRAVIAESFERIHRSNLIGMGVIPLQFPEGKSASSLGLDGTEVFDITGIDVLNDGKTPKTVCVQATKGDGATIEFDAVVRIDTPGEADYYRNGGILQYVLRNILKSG
UniProt P03069: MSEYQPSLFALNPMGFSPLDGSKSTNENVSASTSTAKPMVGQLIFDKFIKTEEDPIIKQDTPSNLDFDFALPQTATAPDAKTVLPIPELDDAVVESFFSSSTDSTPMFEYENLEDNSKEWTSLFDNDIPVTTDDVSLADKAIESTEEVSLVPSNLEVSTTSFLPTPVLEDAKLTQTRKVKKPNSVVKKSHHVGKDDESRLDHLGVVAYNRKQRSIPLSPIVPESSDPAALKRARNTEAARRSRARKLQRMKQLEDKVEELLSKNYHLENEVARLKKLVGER

Experiments:
Assay in all cases: split reporter
[1] = target: T1, Mtb SufR (Rv1460) fused to mDHFR fragment F[1,2] (Mycobacterium tuberculosis) (UniProt O53151)
T1 sequence: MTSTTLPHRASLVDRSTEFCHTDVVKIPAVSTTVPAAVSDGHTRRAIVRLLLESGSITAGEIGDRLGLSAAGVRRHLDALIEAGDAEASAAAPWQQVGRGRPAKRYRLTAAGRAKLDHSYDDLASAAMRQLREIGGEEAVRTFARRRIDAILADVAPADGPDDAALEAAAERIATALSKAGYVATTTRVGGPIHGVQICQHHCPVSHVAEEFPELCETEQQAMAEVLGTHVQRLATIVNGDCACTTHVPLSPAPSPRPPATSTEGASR

[2] = target: Mtb SufS (Rv1464) fused to mDHFR fragment F[1,2] (Mycobacterium tuberculosis) (UniProt P9WQ69)
[3] = target: T2, Mtb SufT (Rv1466), wild type, fused to an mDHFR fragment for M-PFC (Mycobacterium tuberculosis) (UniProt O53157)
T2 sequence: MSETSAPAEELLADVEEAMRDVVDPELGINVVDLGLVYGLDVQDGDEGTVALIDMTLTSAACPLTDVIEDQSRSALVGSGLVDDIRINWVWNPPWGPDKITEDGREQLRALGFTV

[4] = target: Mtb aconitase (Acn) fused to mDHFR fragment F[1,2] (Mycobacterium tuberculosis) (UniProt O53166)
[5] = target: yeast GCN4 fused to an mDHFR fragment for M-PFC (yeast) (UniProt P03069)

B1: Mtb SufT (Rv1466), wild type, fused to an mDHFR fragment for M-PFC (protein, UniProt O53157 1-115)
chain: T2 sequence
With B1 the binding [1] was “binds”, the binding [2] was “binds” and the binding [3] was “binds”. The binding [4] was “binds” and the binding [5] was “no binding”.
